Screen size: about 330,000 compounds; about 100 (0.03%) were called active. This list was built around the results that the source calls inconclusive (neither active nor inactive); the mix of calls is not that of the screen. Calls come from the whole dose curve; as a rule, active = well fitted inhibition curve with a large enough effect; inconclusive = small, poorly fitted or top-dose-only effect; inactive = flat fitted curve, though single readings scatter. Potencies beside an inconclusive call are fits to weak or partial responses and may not hold up.
The molecules below were run on Chaperonin Mm-Cpn (Methanococcus maripaludis) (assay: Inhibitors of TCP-1 ring complex (TRiC) of Methanococcus maripaludis (MmCpn): qHTS). Details: purified Mm-Cpn ATPase, ADP Transcreener TR-FRET; series mostly up to 76.9 µM.
How it was run: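 TR-FRET (320 nm excitation; 590 and 665 nm emission) reports ADP made from 10 uM ATP by 25 nM enzyme; compounds were preincubated 10 min, reaction run 30 min, both at 37°C.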
Note: nearly all actives have a fitted effect of over 80% in size.
Potency is the fitted concentration of half-maximal effect.
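Throughout, for Potency: enzyme at 25 nM with ATP substrate at 10 µM during the reaction.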

Potency, active:
S=c1[nH]nc(-c2cccc(Br)c2)o1 31.6 µM

Potency, inactive:
COc1ccc2[nH]cc(CCNC(=O)Nc3ccccc3)c2c1, COCCN(CC(=O)NC1CCCCC1)C(=O)/C=C/C(=O)c1ccc(OC)cc1O, Cc1oc(C(=O)O)cc1COc1cccc2cccnc12, O=C1CCCCC1c1cccc2ccccc12 (stereo unspecified), CCOC(=O)c1sc2nc(CC(=O)OC)nc(NCc3ccco3)c2c1C, CCS(=O)(=O)C1=NSC2=NC(=O)/C(=C\c3ccc(OC(=O)c4ccco4)cc3)C(=N)N21, CCC(C)NCCOCCOc1cc(C)c(Cl)c(C)c1 (stereo unspecified), O=C(CCl)Nc1c2c(nn1-c1ccccc1)CSC2

Potency, inconclusive:
CC(=O)N(Cc1ccco1)c1nc(C(=O)Nc2ccc(Cl)cc2)c(C)s1 100 µM [inhibitor, partial curve, poor fit], Cc1cccc(OCC(=O)Nc2ccccc2F)c1 100 µM [inhibitor, partial curve, poor fit], CCn1c(SCC(=O)NCc2ccco2)nc2cccnc21 63.1 µM [inhibitor, single point], CC(=O)c1sc(NC(=O)C2CCN(C(=O)c3ccc(F)cc3)CC2)nc1-c1ccccc1 14.1 µM [inhibitor, single point], CCOC(=O)N1CCN(C(=S)NC(=O)c2cncc(Br)c2)CC1 12.6 µM [inhibitor, single point], CCN(C(=O)COC(=O)c1ccc(C)c(S(=O)(=O)N2CCOCC2)c1)C1CCS(=O)(=O)C1 (stereo unspecified) 17.8 µM [inhibitor, single point], Cc1[nH]c2ccccc2c1C(=O)CSc1n[nH]c(N)n1 22.4 µM [inhibitor, single point], COc1cc(NC(=O)Cn2nc(C(F)(F)F)c(Br)c2C)cc([N+](=O)[O-])c1 22.4 µM [inhibitor, single point], Fc1ccc(COc2cccc(-c3n[nH]c(=S)o3)c2)cc1 126 µM [inhibitor, partial curve, poor fit], CC(Sc1nnc(-c2ccccc2)c(-c2ccccc2)n1)C(=O)N1CCc2ccccc21 (stereo unspecified) 89.1 µM [inhibitor, single point], CN(C)S(=O)(=O)c1ccc(Cl)c(C(=O)NCc2ccco2)c1 100 µM [inhibitor, single point], CCOc1ccc(NC(=O)CN2CCN(c3ccccc3C)CC2)cc1S(=O)(=O)N1CCCC1 50.1 µM [inhibitor, single point], CCCn1c(SCC(=O)N2c3ccccc3CCc3ccccc32)nc2c1c(=O)n(C)c(=O)n2C 25.1 µM [inhibitor, single point], Cc1ccc(CONC(=O)c2ccc(C)cc2)cc1 63.1 µM [inhibitor, single point], CC1(C)Cc2c(sc(N)c2C#N)C(C)(C)N1 89.1 µM [inhibitor, single point], COc1ccc2sc(-c3ccc(S(C)(=O)=O)cc3)c(-c3ccc4c(c3)OCCO4)c2c1 31.6 µM [inhibitor, partial curve, poor fit], O=C(NC(=S)Nc1ccc(C(=O)N2CCOCC2)cc1)c1ccc([N+](=O)[O-])cc1 25.1 µM [inhibitor, single point], Cc1nn(C(C)C(=O)NCCC2=CCCCC2)c(=O)c2nn(-c3ccccc3)c(C)c12 (stereo unspecified) 22.4 µM [inhibitor, single point], CCOc1ccc(NC(=S)NC(C)CCc2ccccc2)cc1 (stereo unspecified) 89.1 µM [inhibitor, single point], O=C(COC(=O)CC1CCCC1)Nc1ccccc1[N+](=O)[O-] 100 µM [inhibitor, single point], COC(=O)C1CCN(CC(=O)NC(=O)Nc2ccccc2F)CC1 89.1 µM [inhibitor, single point], Cc1sc2ncnc(-n3nnc4ccccc43)c2c1C 100 µM [inhibitor, single point], COc1ccc(C(=O)/C=C/c2ccccc2F)c(OC(=O)c2ccc([N+](=O)[O-])cc2)c1 112 µM [inhibitor, single point], CCOC(=O)c1sc2ncnc(Nc3cccc(C(=O)O)c3)c2c1C 22.4 µM [inhibitor, single point], COc1cc(-c2c(C#N)c(N)nc3c2c(C)nn3-c2ccc(C)c(C)c2)cc(OC)c1OC 100 µM [inhibitor, partial curve, poor fit], COC(=O)[C@@]1(Cc2ccc(OC)cc2)[C@H]2c3cc(C(=O)N4CCCC4)n(Cc4ccc(C)o4)c3C[C@H]2CN1C(=O)c1ccccc1 14.1 µM [inhibitor, single point], COc1ccc(C2=NN(C(=O)CSc3cn(C)c4ccccc34)C(c3ccc(OC)cc3)C2)cc1 (stereo unspecified) 70.8 µM [inhibitor, single point], CN(C)c1ccc(C(=O)Nc2cccc(S(=O)(=O)N3CCCC3)c2)cc1 100 µM [inhibitor, single point], O=C(Nc1cccc(C(=O)N2CCOCC2)c1)c1ccccc1Cl 28.2 µM [inhibitor, single point], Cc1ccc(S(=O)(=O)NC(C(=O)OCC(=O)NC2CCS(=O)(=O)C2)C(C)C)cc1 (stereo unspecified) 14.1 µM [inhibitor, single point], Cc1ccc(NC(=O)c2cccs2)cc1NC(=O)c1ccccc1Cl 89.1 µM [inhibitor, single point], CC(NC(=O)Nc1ccccc1)C(c1cccs1)N1CCOCC1 (stereo unspecified) 89.1 µM [inhibitor, single point]

From PubChem BioAssay AID504842 (National Center for Advancing Translational Sciences (NCATS), 2011)
